Laboratory results from patent US9670217B2, “Process for preparing chlorins and their pharmaceutical uses” (UNIVERSIDADE DE COIMBRA, priority 2008, dated 2017).
Several values for one entry are separate records, joined by “and”; a condition that tells them apart may be missing. Equal entries are not always repeated.

How the values were obtained:
[1] = EPR spin trapping of photogenerated reactive oxygen species
[2] = Fluorescence detection limit in human serum; conditions: excitation 514 nm

Row | SMILES | EPR detection of BMPO-hydroxyl radical adduct ([1]; 30-80 μM sensitizer, 40 mM BMPO, air-saturated aqueous solution, laser 4, 8, 16 minutes) | EPR detection of DMPO-superoxide adduct ([1]; DMPO in DMSO, air and light) | fluorescence detection limit [2]
1 | O=S(=O)(O)c1ccc(Cl)c(-c2c3nc(c(-c4cc(S(=O)(=O)O)ccc4Cl)c4ccc([nH]4)c(-c4cc(S(=O)(=O)O)ccc4Cl)c4nc(c(-c5cc(S(=O)(=O)O)ccc5Cl)c5ccc2[nH]5)CC4)CC3)c1 [Luzitin-Cl, 5,10,15,20-tetrakis(2-chloro-5-sulfonylphenyl)bacteriochlorin] | detection of a BMPO adduct which is that formed between BMPO and the hydroxyl radical | detected the DMPO-superoxide adduct in the presence of air and light | 
2 | CCNS(=O)(=O)c1ccc(Cl)c(-c2c3nc(c(-c4c(Cl)ccc(S(=O)(=O)NCC)c4Cl)c4ccc([nH]4)c(-c4c(Cl)ccc(S(=O)(=O)NCC)c4Cl)c4nc(c(-c5c(Cl)ccc(S(=O)(=O)NCC)c5Cl)c5ccc2[nH]5)CC4)CC3)c1Cl [Luzitin-Cl2Et, 5,10,15,20-tetrakis(2,6-dichloro-3-N-ethylsulfamoylphenyl)bacteriochlorin] |  |  | 0.17 nM and 0.2 ng/g
